For this experiment, the target named is T1, synthetic CXCR2 C-tail peptide (last 13 residues with a biotin-conjugate at N-terminus) (human) (UniProt P25025).
T1 sequence (peptide, biotin-conjugate at N-terminus): FVGSSSGHTSTTL
Briefly: pull-down; biotin pull-down: purified GST-PDZ domains or GST alone mixed with the biotinylated CXCR2 C-tail peptide in PBS, 0.2% Triton X-100 at 20 °C for 1 h, Streptavidin beads, anti-GST immunoblot; both purified.

Amino acid sequences for entries named in this document (tags omitted). A change or cut given only in a name is not applied to a line headed by its entry.
UniProt P25025: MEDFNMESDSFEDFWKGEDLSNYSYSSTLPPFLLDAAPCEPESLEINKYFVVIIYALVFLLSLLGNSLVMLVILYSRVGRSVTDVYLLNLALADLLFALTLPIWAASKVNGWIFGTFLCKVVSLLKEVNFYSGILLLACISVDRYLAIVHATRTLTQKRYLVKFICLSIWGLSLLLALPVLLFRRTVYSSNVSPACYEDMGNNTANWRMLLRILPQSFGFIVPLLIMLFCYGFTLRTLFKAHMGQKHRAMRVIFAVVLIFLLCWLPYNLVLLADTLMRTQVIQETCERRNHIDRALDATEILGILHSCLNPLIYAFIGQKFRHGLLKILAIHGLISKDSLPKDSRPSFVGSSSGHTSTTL

The results in this text go back to publication PMC3788737, “Structural Insights into Neutrophilic Migration Revealed by the Crystal Structure of the Chemokine Receptor CXCR2 in Complex with the First PDZ Domain of NHERF1” (PLoS ONE, 2013).

No constants are given. Whether binding was seen depends on the method and setting. A result given as binding can be weak or reduced; the word gives no strength.

On to “GST fusion protein of NHERF1 PDZ1 domain (human) (domain or fragment)”, for which the binding result is “binds”.

In the case of “GST fusion protein of NHERF1 PDZ2 domain (human) (domain or fragment)”, the binding entry is given as “binds”.
